Laboratory results: PubChem BioAssay AID1671190 (National Center for Advancing Translational Sciences (NCATS), 2021)
Screen size: about 580,000 compounds; about 6,100 (1.1%) were called active. Inconclusive results, whose numbers are uncertain, are shown with a selection of clear calls. The call rests on the fitted dose curve; in most records, active means well fitted inhibition curve with a large enough effect; inconclusive means small, poorly fitted or top-dose-only effect, or another doubt; inactive means no such curve, though single readings can be large or run the other way. A potency beside an inconclusive call is a rough fit, not a confirmed value.

Chains of the proteins cited; added tags and fusions are not shown. Lines headed by an entry give the natural chain unless they say otherwise; changes in a name come on top.
UniProt P18054: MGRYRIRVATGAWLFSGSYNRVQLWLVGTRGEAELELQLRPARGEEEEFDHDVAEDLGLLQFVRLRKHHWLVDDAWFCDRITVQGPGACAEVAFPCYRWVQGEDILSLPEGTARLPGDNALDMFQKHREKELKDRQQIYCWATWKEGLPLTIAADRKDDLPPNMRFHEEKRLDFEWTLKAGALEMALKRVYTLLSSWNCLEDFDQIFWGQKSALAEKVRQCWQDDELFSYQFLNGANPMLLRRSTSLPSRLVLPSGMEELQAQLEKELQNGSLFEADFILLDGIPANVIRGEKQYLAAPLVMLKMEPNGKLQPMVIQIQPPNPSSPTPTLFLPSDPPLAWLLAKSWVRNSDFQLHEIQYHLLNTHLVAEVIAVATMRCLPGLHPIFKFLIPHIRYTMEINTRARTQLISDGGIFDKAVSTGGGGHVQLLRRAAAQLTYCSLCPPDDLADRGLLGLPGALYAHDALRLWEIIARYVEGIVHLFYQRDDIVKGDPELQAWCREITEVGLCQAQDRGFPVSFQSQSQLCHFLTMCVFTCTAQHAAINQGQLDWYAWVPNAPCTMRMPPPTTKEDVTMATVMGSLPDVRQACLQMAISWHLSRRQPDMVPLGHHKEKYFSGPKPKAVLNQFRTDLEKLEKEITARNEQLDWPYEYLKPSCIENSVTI

What follows are compounds tested against Polyunsaturated fatty acid lipoxygenase ALOX12 (Homo sapiens) (UniProt P18054) (assay: Primary qHTS assay for inhibitors of human arachidonate 12S-lipoxygenase (ALOX12): Round 2). Conditions: purified 12hLO, xylenol orange hydroperoxide absorbance; series mostly up to 108 µM.
Summary of the method: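 Purified human 12hLO (150 nM final) in 25 mM Hepes, 0.01% Triton X-100, pH 7.0 was preincubated 15 min at room temperature with compound. Then 40 uM arachidonic acid was added, 30 min. Hydroperoxide was read by Fe-XO absorbance ratio 573/405 nm.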
Potency means the concentration at half of the fitted maximal effect.

Structure (SMILES)	Potency
Oc1ccccc1C=NC(N=Cc1ccccc1O)c1ccccc1O (stereo unspecified)	inconclusive: 89.1 µM [inhibitor, partial curve, poor fit]
Cc1ccc(C2=N/C(=C\c3cccnc3)C(=O)O2)cc1	inconclusive: 3.16 µM [inhibitor, full curve, poor fit]
O=S(=O)(Nc1cccc2ncccc12)c1cccc(C(F)(F)F)c1	inconclusive: 28.2 µM [inhibitor, single point]
CCC(=O)NCCCc1nc(-c2ccccc2)no1	inconclusive: 79.4 µM [inhibitor, single point]
CCCn1c(C(O)c2cccc(OC)c2)nc2ccccc21 (stereo unspecified)	inconclusive: 141 µM [inhibitor, single point]
COc1ccc2cc(CN(C)C(=O)CNC(=O)c3ccc(Cl)c(Cl)c3)ccc2c1	inconclusive: 56.2 µM [inhibitor, partial curve, poor fit]
O=C(NCc1ccc(Cl)cc1)c1ccc2cc[nH]c2n1	inconclusive: 25.1 µM [inhibitor, partial curve, poor fit]
C=CCOc1cccc(NC(=O)CCc2ccccc2)c1	inactive
CCN1CCN(c2nc3ccccc3nc2C(C#N)C(=O)OCc2ccccc2)CC1 (stereo unspecified)	inconclusive: 44.7 µM [inhibitor, partial curve, poor fit]
CCOC(=O)COc1ccc2c(C)cc(=O)oc2c1C(=O)c1ccccc1	inactive
O=[N+]([O-])c1ccc(O)c(C2CCCCC2)c1	inconclusive: 50.1 µM [inhibitor, partial curve, poor fit]
CC(C)N(CCNCC(O)COc1ccc(C(C)(C)c2ccccc2)cc1)C(C)C (stereo unspecified)	inconclusive: 56.2 µM [inhibitor, partial curve, poor fit]
COC(=O)c1ccc(C2c3c(oc4ccccc4c3=O)C(=O)N2c2nc(C)c(C(=O)OC)s2)cc1 (stereo unspecified)	inconclusive: 44.7 µM [inhibitor, partial curve, poor fit]
COc1cc2c(C#N)c(N3CCc4ccccc4C3)nc(N)c2c(N)n1	inactive
O=S(=O)(Nc1cc(S(=O)(=O)N2CCCC2)ccc1O)c1ccc(Cl)s1	inconclusive: 50.1 µM [inhibitor, partial curve, poor fit]
O=C(CSc1nnc(-c2ccccn2)n1Cc1ccco1)c1ccc(Cl)cc1	inconclusive: 31.6 µM [inhibitor, partial curve, poor fit]
COc1ccc(-c2nc(C(C)C)nc3c2CN(C(=O)c2ccc(C(F)(F)F)cc2)CC3)cc1	inconclusive: 35.5 µM [inhibitor, partial curve]
COc1cccc([S+](=O)([O-])N2CCC3(CC(C(C)C)=NO3)C2)c1 (stereo unspecified)	inconclusive: 112 µM [inhibitor, single point]
CN1CCC(C2CCN(S(=O)(=O)c3cc(F)ccc3F)C2)CC1 (stereo unspecified)	inconclusive: 17.8 µM [inhibitor, full curve]
COc1ccc2nc(NC(=O)c3cc(-c4ccccc4)on3)sc2c1	inactive
CCOC(=O)CSc1nc2c(c(=O)[nH]c(=O)n2C)n1Cc1cccc(C)c1	inconclusive: 3.16 µM [inhibitor, single point]
O=C(c1ccccc1Oc1ccc(C(F)(F)F)cc1[N+](=O)[O-])N1CCOCC1	inactive

Structure (SMILES)	Potency
COc1ccc(-c2ccnc(N[C@H]3CO[C@H]4[C@@H]3OC[C@@H]4NC(=O)Nc3cccc(C#N)c3)n2)cc1	inconclusive: 20 µM [inhibitor, full curve]
O=C(COC(=O)c1ccc(Cl)nc1)Nc1ccc2c(c1)CCC2	inconclusive: 89.1 µM [inhibitor, single point]
CN(C)C(=O)CN1CCN(c2nc(-c3ccccc3)nc3ccccc23)CC1	inactive
c1ccc(N2CCSC2c2cccs2)cc1 (stereo unspecified)	inactive
CSc1ccc(/C=N/Nc2ccc(Cl)c(Cl)c2)cc1	active: 2 µM
COc1cc(/C=C2\SC(=Nc3ccccc3)NC2=O)cc(Cl)c1O	inconclusive: 44.7 µM [inhibitor, partial curve, poor fit]
CCOc1ccc(N(C(=O)c2snc(C(N)=O)c2N)C(C(=O)NCC2CCCO2)c2ccc(C)o2)cc1 (stereo unspecified)	inconclusive: 89.1 µM [inhibitor, partial curve, poor fit]
C[C@]1(CO)CCC[C@@]2(C)C1CC[C@@H](CO)[C@@H]2CCc1ccoc1 (stereo partly specified)	inconclusive: 89.1 µM [inhibitor, single point]
O=C(O)c1ccc2nnn(O)c2c1	inconclusive: 39.8 µM [inhibitor, partial curve, poor fit]
COc1ccc(-n2ncc(C(=O)N3CCN(c4ccc(F)cc4)CC3)c2C)cc1	inconclusive: 3.98 µM [inhibitor, full curve, poor fit]
CCOC(=O)c1ccc(N2C(=O)c3n[nH]c(C)c3C2c2ccccc2OC)cc1 (stereo unspecified)	inactive
CC(=O)c1cccc(S(=O)(=O)Nc2cccnc2)c1	active: 8.91 µM
CCOc1ccc2nc(NC(=O)CSc3nc(-c4ccccc4)c(C#N)c(=O)[nH]3)sc2c1	inconclusive: 50.1 µM [inhibitor, partial curve, poor fit]
O=c1c2ccccc2nc(/C=C/c2ccccc2)n1CCCO	inconclusive: 25.1 µM [inhibitor, full curve, poor fit]
Cc1nc(NCc2ccco2)c2oc3ccccc3c2n1	inconclusive: 79.4 µM [inhibitor, partial curve, poor fit]
COc1ccc(C(=S)N2CCN(c3ccccc3C)CC2)cc1	inactive
Cc1cccc2sc(NNC(=O)c3cc(=O)c4ccccc4o3)nc12	active: 31.6 µM
CC(C)(C)CC(=O)Nc1nc2c(s1)C[C@@H]1[C@](C)(CO)[C@H](O)CC[C@@]1(C)[C@@H]2CC(=O)Nc1cccc(O)c1	inconclusive: 50.1 µM [inhibitor, partial curve]
COC(=O)c1ccc(NC(=O)CN(CCc2ccccc2)S(=O)(=O)c2ccc(OC)cc2)cc1	inactive
CNC(=S)Nc1cc(OC)c(NC(=O)c2ccco2)cc1OC	inactive
CC(NCC(O)COc1ccc2ccccc2c1)c1ccccc1 (stereo unspecified)	inconclusive: 1.58 µM [inhibitor, full curve, poor fit]
O=C(c1ccccc1F)N1CCC(Cc2nc(C3CCOCC3)no2)CC1	inactive

Structure (SMILES)	Potency
Cc1ccc(N(Cc2ccccc2)C(=O)c2cc(S(=O)(=O)N3CCOCC3)ccc2N2CCCC2)cc1	inconclusive: 56.2 µM [inhibitor, partial curve, poor fit]
Cc1noc(C)c1C(=O)N1CCC2(CCCN(c3ccccc3)C2)CC1	inconclusive: 28.2 µM [inhibitor, single point]
Oc1ccc(NCCN2CCCC2)cc1	inconclusive: 15.8 µM [inhibitor, partial curve]
Cc1ccc2[nH]cc(CCNC(=O)c3ccc(F)cc3)c2c1	inconclusive: 4.47 µM [inhibitor, full curve]
CC(=O)c1ccc(S(=O)(=O)Nc2cc(Cl)ccc2C(=O)N(C)C)cc1	inconclusive: 56.2 µM [inhibitor, single point]
COc1ccc(Cl)cc1NC(=O)CN(C)C(=O)Cn1[nH]c(=O)c2ccccc2c1=O	inconclusive: 28.2 µM [inhibitor, partial curve]
CC(C)=CC(=O)Nc1ccc(Br)cc1F	inconclusive: 79.4 µM [inhibitor, partial curve, poor fit]
CC[N+]1=CN(c2ccccc2)C(C)=CC1(C)C	inconclusive: 79.4 µM [inhibitor, partial curve, poor fit]
O=C(CCNc1cccc(Br)c1)c1cc2ccccc2o1	inconclusive: 50.1 µM [inhibitor, partial curve, poor fit]
C=CCSc1nc(=O)n2ccc(C)cc2n1	inactive
CC(=O)Nc1nc(C)cs1	inactive
CSc1cccc(NC(=O)C2CCCC2)c1	inconclusive: 141 µM [inhibitor, single point]
COc1ccccc1C(=O)NCc1nnc(SCC(=O)Nc2nccs2)n1C	inconclusive: 50.1 µM [inhibitor, partial curve, poor fit]
O=C(CNc1n[nH]c(=O)[nH]c1=O)N/N=C/C=C/c1ccccc1	inconclusive: 31.6 µM [inhibitor, single point]
O=C(Nc1ccccc1)Nc1ccc2snnc2c1	inconclusive: 112 µM [inhibitor, single point]
CC(=O)c1cccc(NC(=O)Cn2c(Nc3cc(C)cc(C)c3)nc(C)cc2=O)c1	inconclusive: 39.8 µM [inhibitor, partial curve]
CCOc1ccc(C(=O)CCC(=O)N(CC)CC(=O)NCc2cccs2)cc1	inconclusive: 112 µM [inhibitor, partial curve, poor fit]
O=C(Nc1ccc(Br)cc1F)C1CCN(c2nc3ccccc3[nH]2)CC1	inconclusive: 112 µM [inhibitor, partial curve, poor fit]
Cc1ccc(-c2onc3ccc(C(=O)/C=C/N(C)C)cc23)cc1	inconclusive: 39.8 µM [inhibitor, partial curve, poor fit]
COc1ccc(S(=O)(=O)N(C)c2ccc(C(N)=O)cc2)cc1	inactive
CCN(CC)S(=O)(=O)c1cc([N+](=O)[O-])ccc1NNC(=O)Nc1ccccc1OC	inconclusive: 44.7 µM [inhibitor, partial curve, poor fit]
COc1cc(/C=N/Nc2nc(C)cc(=O)[nH]2)cc(OC)c1O	inconclusive: 7.08 µM [inhibitor, full curve, poor fit]

Shown as labelled records: part of the list above
CC[N+]1=CN(c2ccccc2)C(C)=CC1(C)C
  Potency: inconclusive: 79.4 µM [inhibitor, partial curve, poor fit]
COc1ccccc1C(=O)NCc1nnc(SCC(=O)Nc2nccs2)n1C
  Potency: inconclusive: 50.1 µM [inhibitor, partial curve, poor fit]
CC(=O)c1cccc(NC(=O)Cn2c(Nc3cc(C)cc(C)c3)nc(C)cc2=O)c1
  Potency: inconclusive: 39.8 µM [inhibitor, partial curve]
Cc1ccc(-c2onc3ccc(C(=O)/C=C/N(C)C)cc23)cc1
  Potency: inconclusive: 39.8 µM [inhibitor, partial curve, poor fit]
